# Data taken from paper PMC6891902.
# Chains of the proteins cited; added tags and fusions are not shown.
# UniProt Q9NZM4: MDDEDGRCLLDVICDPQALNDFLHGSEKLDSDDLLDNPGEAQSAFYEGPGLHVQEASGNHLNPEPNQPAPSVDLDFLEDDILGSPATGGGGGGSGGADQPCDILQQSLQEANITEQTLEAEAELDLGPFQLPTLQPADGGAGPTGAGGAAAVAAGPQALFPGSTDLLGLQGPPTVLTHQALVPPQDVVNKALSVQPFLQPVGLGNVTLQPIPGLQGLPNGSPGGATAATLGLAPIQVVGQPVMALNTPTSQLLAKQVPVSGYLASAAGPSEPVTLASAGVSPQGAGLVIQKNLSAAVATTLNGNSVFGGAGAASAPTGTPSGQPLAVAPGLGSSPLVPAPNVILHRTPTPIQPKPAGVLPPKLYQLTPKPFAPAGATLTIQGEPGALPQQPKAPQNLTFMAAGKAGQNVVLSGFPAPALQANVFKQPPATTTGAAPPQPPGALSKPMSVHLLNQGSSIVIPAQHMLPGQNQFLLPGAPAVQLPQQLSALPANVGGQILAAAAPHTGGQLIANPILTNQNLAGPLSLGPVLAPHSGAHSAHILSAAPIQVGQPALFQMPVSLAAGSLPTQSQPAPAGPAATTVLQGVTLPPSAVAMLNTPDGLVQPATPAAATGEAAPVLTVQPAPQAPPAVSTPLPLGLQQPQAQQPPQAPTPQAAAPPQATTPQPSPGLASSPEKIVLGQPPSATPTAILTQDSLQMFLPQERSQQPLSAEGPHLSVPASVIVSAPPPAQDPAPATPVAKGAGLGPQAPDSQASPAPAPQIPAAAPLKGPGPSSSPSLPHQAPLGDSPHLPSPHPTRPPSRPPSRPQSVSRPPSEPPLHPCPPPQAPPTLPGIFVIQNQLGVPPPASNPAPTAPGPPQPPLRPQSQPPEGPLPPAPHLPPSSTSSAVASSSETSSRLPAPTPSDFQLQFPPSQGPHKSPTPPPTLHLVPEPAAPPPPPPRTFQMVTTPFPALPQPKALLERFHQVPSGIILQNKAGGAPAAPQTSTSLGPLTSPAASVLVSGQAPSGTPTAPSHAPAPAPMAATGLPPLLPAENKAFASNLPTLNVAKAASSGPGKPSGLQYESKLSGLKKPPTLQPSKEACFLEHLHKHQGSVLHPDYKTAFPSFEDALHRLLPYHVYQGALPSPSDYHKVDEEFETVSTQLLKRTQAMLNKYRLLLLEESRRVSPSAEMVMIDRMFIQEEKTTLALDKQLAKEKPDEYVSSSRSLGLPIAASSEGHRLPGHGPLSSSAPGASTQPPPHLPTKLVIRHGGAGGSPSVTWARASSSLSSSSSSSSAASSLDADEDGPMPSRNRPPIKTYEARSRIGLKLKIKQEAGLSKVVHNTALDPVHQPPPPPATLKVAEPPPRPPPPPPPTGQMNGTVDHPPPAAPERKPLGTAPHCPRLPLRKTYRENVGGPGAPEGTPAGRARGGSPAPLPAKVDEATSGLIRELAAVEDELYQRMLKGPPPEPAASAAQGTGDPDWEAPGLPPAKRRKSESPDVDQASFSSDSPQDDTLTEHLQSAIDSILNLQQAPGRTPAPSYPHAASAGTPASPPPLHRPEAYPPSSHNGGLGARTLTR
# UniProt P50750: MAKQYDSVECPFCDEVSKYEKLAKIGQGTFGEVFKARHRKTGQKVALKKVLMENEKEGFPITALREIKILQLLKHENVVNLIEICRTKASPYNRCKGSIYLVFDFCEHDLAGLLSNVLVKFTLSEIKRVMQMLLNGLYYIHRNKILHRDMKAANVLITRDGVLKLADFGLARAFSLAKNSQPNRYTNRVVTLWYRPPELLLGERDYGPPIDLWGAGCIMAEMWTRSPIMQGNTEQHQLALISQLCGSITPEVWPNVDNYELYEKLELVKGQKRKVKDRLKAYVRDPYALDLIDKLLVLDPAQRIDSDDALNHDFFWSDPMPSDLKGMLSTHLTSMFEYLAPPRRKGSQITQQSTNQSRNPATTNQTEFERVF
# Results are given in words; binding and its absence hold for the method and conditions named. Binding seen in cells or lysates may run through a third protein. Some entries that bind do so weakly or less than the wild type.
# Biological target: Flag-tagged GLTSCR1^WT (glioma tumor suppressor candidate region gene 1, wild type) (human) (UniProt Q9NZM4)
# Assay: co-IP; Flag-tagged GLTSCR1 (wild type, frameshift or deletion constructs) coexpressed with HA-tagged BRD4 (full length, deletion or mutation constructs) in HEK293; precipitated with Anti-FLAG M2 Magnetic Beads overnight at 4 °C; lysis buffer pH 8.0, 20 mM Tris-HCl, 150 mM NaCl, 0.5% NP-40; immunoblot; cells treated with TSA (20 x 10^-6 M, 12 h) in Figure 5H
substance,measurement,value
CDK9 (in HEK293 lysate) (from UniProt P50750 1-372),binding,binds
